In paper doi:10.1101/2021.07.21.453261 one finds binding data, which are given here for two molecules.

The experiment addresses TgGRA14 endogenously epitope-tagged at the C-terminus with 6x-HA (ME49Δku80 GRA14-HA6x) (Toxoplasma gondii (ME49)). Briefly: co-IP.

These are yes or no findings as the source states them, for the method shown. Binding seen in cells or lysates may run through a third protein. Binding calls can cover weak binding; strength is not graded here.

B1: TgGRA1 (protein, UniProt P13403 25-190)
chain: AEGGDNQSSAVSDRASLFGLLSGGTGQGLGIGESVDLEMMGNTYRVERPTGNPDLLKIAIKASDGSYSEVGNVNVEEVIDTMKSMQRDEDIFLRALNKGETVEEAIEDVAQAEGLNSEQTLQLEDAVSAVASVVQDEMKVIDDVQQLEKDKQQLKDDIGFLTGERE
Consider B1, for which the binding entry was “binds”.

B2: TgGRA4 (protein, UniProt Q27002 21-345)
chain: GECSFGSHLADMAGLSGRHDKERHQAKKRYYHSMYGNQTPYPYANGQQASPPPQGQLLIIQNPDGSFMIVDQQGVPQVPQAAGGPGSPMNGGYYMPTGVYTAQVVPGTPGHPVQAIPQQPLRTQATATYYHPAAVPPPGPSVFVFTPSSVQPGAEVTPGYSGLQLRQQSQYGYSYPGTTSTPTPPPPASYGYPVFPAFPRLPAFSDSVSVSTEDSGLTGVKDSSSSESTVTPADEAASESEEGDKTSRKSKVKKGILTGLGVAATLAAAAAAAKAVKGFGGTRTSTAPAEAGKTELDDGYRPPPFNPRPSPYAELLKDLERMRKE
In the case of B2, the binding result is “binds”.
